No constants are given. Whether binding was seen depends on the method and setting. Binding can be weak; no strength is given.
Legend:
HIF-1αP564R (human) [1] = assay: immunofluorescence on HEK 293 cells transfected with HIF1α mut P564
HIF-1αP564R (human) [2] = assay: Western blot of lysates of transfected HEK293 cells, β-actin as loading control
HIF-1αP402R (human) [3] = assay: as above
HIF-1αP402R (human) [4] = assay: immunofluorescence on HEK 293 cells transfected with HIF1α mut P402

binding (HIF-1αP564R (human) [1]): binds | binding (HIF-1αP564R (human) [2]): binds | binding (HIF-1αP402R (human) [3]): binds | binding (HIF-1αP402R (human) [4]): binds
B1: monoclonal antibody clone 7D6 (antibody, V domains shown)
VH: EVQLVESGGGLVKPGGSLKLSCAASGFTFSSYAMSWVRQTPEKRLEWVAAISYGGNYTYYPDSVKGRFTVSRDNAKNTLYLQMSSLRSEDTAMYYCARRARAEYYYAMDYWGQGTSVTVSS
VL: DVLMTQTPLSLPVSLGDQASISCKSSQSIVHSNGNTYLEWYLQKPGQPPKVLIYKVSNRFSGVPDRFSGSGSGTDSTLKISRVEAEDLGLYYCFQGSHVPWTFGGGTKLEI
